The supplement of paper PMC10849652
The other results are listed elsewhere or left out.

By UniProt entry, the sequences of proteins in these tests, tags left out. Where a name states a change or a piece, a line headed by the entry shows the natural chain unless it says otherwise.
UniProt F5GZS6: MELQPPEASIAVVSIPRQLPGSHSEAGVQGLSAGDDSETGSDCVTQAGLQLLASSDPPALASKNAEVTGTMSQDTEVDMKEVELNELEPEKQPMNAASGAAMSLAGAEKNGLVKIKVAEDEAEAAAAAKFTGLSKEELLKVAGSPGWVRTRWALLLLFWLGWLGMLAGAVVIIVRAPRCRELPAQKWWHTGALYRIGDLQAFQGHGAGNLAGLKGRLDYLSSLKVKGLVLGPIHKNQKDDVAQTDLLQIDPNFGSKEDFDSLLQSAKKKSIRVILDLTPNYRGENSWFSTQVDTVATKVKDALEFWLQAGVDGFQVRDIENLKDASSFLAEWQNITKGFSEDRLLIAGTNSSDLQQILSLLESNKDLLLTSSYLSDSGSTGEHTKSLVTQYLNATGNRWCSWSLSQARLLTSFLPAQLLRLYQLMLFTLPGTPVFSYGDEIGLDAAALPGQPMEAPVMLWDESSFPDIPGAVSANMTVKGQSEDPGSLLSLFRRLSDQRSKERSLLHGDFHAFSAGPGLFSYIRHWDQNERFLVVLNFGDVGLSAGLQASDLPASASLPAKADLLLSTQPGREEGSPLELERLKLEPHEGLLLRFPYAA
UniProt Q96A29: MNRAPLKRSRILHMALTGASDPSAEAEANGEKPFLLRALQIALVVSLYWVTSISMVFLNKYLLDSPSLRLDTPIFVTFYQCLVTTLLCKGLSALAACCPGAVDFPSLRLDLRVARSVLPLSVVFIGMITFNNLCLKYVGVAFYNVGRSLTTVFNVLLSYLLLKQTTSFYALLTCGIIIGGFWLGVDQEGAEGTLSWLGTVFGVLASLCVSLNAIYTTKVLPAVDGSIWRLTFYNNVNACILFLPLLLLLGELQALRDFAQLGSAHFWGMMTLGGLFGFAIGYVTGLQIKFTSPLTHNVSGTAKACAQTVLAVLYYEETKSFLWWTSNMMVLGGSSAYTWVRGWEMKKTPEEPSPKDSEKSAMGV
UniProt O76082: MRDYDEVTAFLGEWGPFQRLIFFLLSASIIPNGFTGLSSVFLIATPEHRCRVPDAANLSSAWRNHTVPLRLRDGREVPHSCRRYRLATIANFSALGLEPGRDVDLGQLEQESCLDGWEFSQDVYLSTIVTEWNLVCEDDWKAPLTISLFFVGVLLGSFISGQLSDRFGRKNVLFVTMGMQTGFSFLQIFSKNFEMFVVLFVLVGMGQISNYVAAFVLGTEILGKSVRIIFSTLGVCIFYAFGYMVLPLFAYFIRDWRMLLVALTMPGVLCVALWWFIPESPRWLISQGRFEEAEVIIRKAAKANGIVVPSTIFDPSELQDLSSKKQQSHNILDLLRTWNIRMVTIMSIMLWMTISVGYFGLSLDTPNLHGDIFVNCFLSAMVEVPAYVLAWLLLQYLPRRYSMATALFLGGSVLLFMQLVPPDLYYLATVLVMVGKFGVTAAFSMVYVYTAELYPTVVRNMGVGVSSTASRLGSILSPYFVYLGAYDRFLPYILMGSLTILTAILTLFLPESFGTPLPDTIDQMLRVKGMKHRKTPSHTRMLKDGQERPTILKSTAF
UniProt P50443: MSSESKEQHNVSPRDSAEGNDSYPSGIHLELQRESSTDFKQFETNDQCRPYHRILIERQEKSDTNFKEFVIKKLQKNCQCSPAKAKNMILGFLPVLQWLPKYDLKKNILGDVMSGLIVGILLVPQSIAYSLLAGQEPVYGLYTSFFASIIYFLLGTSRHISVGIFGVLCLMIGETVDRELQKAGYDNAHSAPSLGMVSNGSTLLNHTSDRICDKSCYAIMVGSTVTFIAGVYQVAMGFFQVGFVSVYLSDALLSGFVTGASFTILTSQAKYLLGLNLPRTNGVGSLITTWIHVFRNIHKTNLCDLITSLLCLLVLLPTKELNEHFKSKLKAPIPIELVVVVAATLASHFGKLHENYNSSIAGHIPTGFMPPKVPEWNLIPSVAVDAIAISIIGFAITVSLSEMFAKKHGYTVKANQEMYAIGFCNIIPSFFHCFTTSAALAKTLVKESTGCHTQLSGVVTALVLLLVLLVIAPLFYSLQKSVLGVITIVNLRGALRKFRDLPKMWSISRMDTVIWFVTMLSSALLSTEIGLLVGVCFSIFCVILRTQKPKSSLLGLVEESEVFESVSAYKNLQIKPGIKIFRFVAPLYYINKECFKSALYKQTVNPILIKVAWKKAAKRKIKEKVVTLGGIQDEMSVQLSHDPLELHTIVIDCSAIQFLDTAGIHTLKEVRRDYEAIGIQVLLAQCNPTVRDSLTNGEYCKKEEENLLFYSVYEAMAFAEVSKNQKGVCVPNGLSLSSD
UniProt Q3KQZ1: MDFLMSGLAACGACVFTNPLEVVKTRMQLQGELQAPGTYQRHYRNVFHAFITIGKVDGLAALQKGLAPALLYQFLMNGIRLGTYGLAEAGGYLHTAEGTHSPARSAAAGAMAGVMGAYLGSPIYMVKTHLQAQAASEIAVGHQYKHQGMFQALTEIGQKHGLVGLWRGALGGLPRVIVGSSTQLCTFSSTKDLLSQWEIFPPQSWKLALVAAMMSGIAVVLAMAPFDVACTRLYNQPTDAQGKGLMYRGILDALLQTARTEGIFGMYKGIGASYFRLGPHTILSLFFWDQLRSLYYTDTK
UniProt O15431: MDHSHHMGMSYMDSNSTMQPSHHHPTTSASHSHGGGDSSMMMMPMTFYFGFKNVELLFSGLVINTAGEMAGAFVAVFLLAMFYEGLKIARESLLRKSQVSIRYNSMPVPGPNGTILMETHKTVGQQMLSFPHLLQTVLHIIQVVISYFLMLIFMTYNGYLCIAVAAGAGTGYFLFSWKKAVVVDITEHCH
UniProt Q9BRV3: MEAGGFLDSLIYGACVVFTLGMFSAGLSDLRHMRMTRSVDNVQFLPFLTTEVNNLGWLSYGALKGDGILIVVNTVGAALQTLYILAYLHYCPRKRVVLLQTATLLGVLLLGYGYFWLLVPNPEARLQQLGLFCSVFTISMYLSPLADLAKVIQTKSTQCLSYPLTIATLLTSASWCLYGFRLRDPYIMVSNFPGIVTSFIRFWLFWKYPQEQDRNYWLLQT
UniProt O95258: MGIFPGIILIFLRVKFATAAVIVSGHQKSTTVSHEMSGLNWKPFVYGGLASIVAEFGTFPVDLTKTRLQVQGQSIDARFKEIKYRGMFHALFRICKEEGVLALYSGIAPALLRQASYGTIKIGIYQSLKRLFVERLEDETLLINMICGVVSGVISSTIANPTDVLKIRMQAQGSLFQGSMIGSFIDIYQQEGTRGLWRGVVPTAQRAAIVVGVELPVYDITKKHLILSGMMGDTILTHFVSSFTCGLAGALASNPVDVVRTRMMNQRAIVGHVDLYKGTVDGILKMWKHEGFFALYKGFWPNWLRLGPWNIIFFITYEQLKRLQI
UniProt Q8N697: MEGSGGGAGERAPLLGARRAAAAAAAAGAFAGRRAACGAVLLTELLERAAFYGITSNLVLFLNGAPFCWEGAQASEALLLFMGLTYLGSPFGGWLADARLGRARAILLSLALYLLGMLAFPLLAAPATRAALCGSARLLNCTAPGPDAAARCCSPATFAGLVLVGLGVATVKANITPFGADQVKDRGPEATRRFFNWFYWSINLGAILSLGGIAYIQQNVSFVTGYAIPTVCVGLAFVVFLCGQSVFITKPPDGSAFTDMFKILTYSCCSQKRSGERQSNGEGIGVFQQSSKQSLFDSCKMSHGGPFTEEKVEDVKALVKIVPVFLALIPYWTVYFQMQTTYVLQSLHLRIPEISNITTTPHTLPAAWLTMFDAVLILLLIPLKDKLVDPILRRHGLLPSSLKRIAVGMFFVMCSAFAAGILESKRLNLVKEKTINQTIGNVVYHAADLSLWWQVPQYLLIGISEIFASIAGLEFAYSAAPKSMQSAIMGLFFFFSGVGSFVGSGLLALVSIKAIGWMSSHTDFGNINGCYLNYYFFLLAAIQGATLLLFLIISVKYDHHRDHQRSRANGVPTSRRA
UniProt Q96K37: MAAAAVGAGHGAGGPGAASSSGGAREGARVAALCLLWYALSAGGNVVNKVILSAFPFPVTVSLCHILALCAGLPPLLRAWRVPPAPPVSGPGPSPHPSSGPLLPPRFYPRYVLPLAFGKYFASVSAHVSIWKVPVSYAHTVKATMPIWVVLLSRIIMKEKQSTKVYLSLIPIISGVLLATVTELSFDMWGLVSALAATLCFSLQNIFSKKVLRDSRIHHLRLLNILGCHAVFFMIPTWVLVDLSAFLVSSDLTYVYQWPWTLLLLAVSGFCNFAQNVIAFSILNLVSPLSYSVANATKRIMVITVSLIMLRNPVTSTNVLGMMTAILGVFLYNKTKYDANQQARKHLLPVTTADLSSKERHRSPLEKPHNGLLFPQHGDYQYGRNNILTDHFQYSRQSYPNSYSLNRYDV
UniProt Q969S0: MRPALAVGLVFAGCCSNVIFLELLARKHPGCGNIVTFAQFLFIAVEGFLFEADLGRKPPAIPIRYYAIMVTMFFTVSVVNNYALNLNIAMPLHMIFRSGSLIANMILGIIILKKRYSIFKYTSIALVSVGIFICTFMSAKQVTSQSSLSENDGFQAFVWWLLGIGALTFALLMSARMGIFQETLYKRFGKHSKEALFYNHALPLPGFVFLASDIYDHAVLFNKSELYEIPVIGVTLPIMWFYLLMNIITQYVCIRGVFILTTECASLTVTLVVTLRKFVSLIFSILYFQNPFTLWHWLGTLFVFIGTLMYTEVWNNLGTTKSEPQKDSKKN
UniProt P43003, whole entry, looked up: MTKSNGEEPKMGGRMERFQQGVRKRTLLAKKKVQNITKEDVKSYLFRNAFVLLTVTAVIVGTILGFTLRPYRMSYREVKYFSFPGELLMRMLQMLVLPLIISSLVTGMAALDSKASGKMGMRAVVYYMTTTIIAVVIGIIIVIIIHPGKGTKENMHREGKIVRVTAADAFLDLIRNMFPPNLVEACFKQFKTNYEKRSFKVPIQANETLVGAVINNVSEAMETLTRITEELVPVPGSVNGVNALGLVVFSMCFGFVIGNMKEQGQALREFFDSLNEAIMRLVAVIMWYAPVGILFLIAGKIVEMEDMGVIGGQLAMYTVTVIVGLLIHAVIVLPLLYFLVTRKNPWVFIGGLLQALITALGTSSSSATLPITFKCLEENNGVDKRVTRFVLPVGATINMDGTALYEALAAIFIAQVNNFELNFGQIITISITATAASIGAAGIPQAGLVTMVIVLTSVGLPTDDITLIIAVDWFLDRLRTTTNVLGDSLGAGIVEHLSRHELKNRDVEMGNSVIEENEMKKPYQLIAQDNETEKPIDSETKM
UniProt Q8N755: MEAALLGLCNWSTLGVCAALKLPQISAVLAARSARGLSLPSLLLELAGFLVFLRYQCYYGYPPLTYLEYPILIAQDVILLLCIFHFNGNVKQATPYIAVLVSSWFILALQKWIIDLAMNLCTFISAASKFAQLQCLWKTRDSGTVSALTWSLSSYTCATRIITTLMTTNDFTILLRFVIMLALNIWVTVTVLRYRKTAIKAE
UniProt Q9Y2P4: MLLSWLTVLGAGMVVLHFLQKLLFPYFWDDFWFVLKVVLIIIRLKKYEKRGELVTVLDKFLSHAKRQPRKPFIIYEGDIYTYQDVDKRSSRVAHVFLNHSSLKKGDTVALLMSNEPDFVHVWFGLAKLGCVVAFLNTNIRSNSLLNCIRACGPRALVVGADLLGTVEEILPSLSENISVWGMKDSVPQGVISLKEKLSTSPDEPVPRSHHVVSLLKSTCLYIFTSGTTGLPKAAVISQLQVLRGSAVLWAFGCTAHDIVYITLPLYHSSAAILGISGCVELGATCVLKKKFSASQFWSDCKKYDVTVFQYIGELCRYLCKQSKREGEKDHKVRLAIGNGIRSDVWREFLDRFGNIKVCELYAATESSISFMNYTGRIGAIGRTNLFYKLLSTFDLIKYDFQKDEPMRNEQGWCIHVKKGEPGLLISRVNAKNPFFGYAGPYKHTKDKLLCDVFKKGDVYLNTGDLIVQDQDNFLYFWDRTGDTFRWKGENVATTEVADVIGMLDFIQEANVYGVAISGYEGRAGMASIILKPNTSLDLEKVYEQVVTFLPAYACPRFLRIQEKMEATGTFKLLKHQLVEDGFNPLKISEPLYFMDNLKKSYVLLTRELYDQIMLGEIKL
UniProt Q9H015: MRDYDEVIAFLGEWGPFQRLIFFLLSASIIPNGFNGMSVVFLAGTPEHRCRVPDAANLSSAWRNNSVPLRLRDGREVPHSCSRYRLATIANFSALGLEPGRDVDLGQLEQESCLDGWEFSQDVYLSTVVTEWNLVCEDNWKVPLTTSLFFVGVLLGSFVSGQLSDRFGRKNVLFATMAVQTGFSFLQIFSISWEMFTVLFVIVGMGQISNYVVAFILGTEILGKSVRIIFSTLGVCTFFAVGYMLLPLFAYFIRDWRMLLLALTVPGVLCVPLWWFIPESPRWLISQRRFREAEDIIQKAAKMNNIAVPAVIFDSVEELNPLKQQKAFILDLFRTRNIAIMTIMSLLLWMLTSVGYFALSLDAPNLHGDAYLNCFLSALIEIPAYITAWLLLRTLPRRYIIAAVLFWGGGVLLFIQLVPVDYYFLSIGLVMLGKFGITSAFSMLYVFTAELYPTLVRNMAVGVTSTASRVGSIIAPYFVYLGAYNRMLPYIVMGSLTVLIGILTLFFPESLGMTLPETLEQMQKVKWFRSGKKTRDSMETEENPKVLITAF

compound: CC1=NC(=CC=C1)C2=C(N=C(N2)C(C)(C)C)C3=CC4=NC=CN=C4C=C3; assay: log2 fold change, soluble protein after heating vs DMSO (PISA); higher = thermal stabilisation; K562 cells, 10 uM, 30 min; active = over 0.2 and 3.5 SD of the protein, either way, in both replicates (recomputed)
How it was run: (§1)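 Quantification of soluble protein used TMTpro 16plex LC-MS/MS, with channel sums equalised. Samples were the supernatant after 21,000xg for 90 min of pooled aliquots from K562 cells (2×10^6 cells/mL) treated with 10 μM compound for 30 min, heated for 3 min over 48°C-58°C, and extracted in PBS with 0.5% NP-40 at 4°C. Values, from duplicates, describe thermal stability against control samples on a log2 fold-change scale.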

Target	log2 fold change
SLC35C2 isoform 3 (UniProt Q9NQQ7)	inactive: -0.07
SLC3A2 (UniProt F5GZS6)	inactive: 0.189
SLC22A23 (UniProt A1A5C7)	inactive: -0.007
SLC35C1 (UniProt Q96A29)	inactive: -0.07
SLC41A3 isoform 9 (UniProt Q96GZ6)	inactive: -0.036
SLC22A5 isoform 3 (UniProt O76082)	inactive: -0.067
SLC26A2 (UniProt P50443)	inactive: 0.064
SLC25A29 (UniProt Q8N8R3)	inactive: -0.016
SLC25A35 (UniProt Q3KQZ1)	inactive: -0.033
SLC31A1 (UniProt O15431)	inactive: 0.019
SLC50A1 (UniProt Q9BRV3)	inactive: 0.044
SLC25A14 isoform 3 (UniProt O95258)	inactive: -0.045
SLC23A2 (UniProt Q9UGH3)	inactive: -0.046
SLC15A4 (UniProt Q8N697)	inactive: 0.052
SLC36A1 (UniProt Q7Z2H8)	inactive: 0.116
SLC35E1 (UniProt Q96K37)	inactive: 0.028
SLC35B4 (UniProt Q969S0)	inactive: -0.064

compound: CCCCN(Cc1ccc(C(=O)NO)cc1)C(=O)Nc1ccccc1 [Nexturastat A]; assay: as above
How it was run: as §1

Target	log2 fold change
SLC35C2 isoform 3 (UniProt Q9NQQ7)	inactive: 0.037
SLC3A2 (UniProt F5GZS6)	inactive: 0.011
SLC3A2 (UniProt F5H867)	inactive: -0.021
SLC35A5 (UniProt Q9BS91)	inactive: -0.039
SLC10A3 (UniProt P09131)	inactive: -0.244
SLC35C1 (UniProt Q96A29)	inactive: -0.155
SLC41A3 isoform 9 (UniProt Q96GZ6)	inactive: -0.176
SLC22A5 isoform 3 (UniProt O76082)	inactive: 0.103
SLC36A4 (UniProt Q6YBV0)	inactive: 0.091
SLC26A2 (UniProt P50443)	inactive: 0.164
SLC1A3 (UniProt P43003)	inactive: -0.099
SLC31A1 (UniProt O15431)	inactive: 0.028
SLC35E3 (UniProt Q7Z769)	inactive: 0.011
SLC66A3 (UniProt Q8N755)	inactive: 0.019
SLC27A6 (UniProt Q9Y2P4)	inactive: 0.197
SLC22A4 (UniProt Q9H015)	inactive: -0.044
SLC66A2 (UniProt Q8N2U9)	inactive: 0.013
SLC35E1 (UniProt Q96K37)	inactive: 0.159
SLC35B4 (UniProt Q969S0)	inactive: -0.061

compound: CCCS(=O)(=O)Nc1ccc(F)c(C(=O)c2c[nH]c3ncc(-c4ccc(Cl)cc4)cc23)c1F [vemurafenib]; assay: as above
How it was run: as §1

Target	log2 fold change
SLC3A2 (UniProt F5GZS6)	inactive: 0.13
SLC35D1 (UniProt Q9NTN3)	inactive: 0.012
SLC35C1 (UniProt Q96A29)	inactive: 0.033
SLC22A5 isoform 3 (UniProt O76082)	inactive: -0.084
SLC26A2 (UniProt P50443)	inactive: -0.036
SLC1A3 (UniProt P43003)	inactive: -0.043
SLC46A1 (UniProt Q96NT5)	inactive: 0.056
SLC25A35 (UniProt Q3KQZ1)	inactive: -0.037
SLC31A1 (UniProt O15431)	inactive: 0.011
SLC27A6 (UniProt Q9Y2P4)	inactive: 0.267
SLC39A9 (UniProt Q9NUM3)	inactive: -0.21
SLC25A14 isoform 3 (UniProt O95258)	inactive: -0.05
SLC22A4 (UniProt Q9H015)	inactive: -0.051
SLC15A4 (UniProt Q8N697)	inactive: -0.068
SLC35E1 (UniProt Q96K37)	inactive: 0.001
SLC35B4 (UniProt Q969S0)	inactive: 0.062

compound: CCCS(=O)(=O)Nc1ccc(F)c(C(=O)c2c[nH]c3ncc(Cl)cc23)c1F; assay: as above
How it was run: as §1

Target	log2 fold change
SLC3A2 (UniProt F5GZS6)	inactive: -0.168
SLC22A23 (UniProt A1A5C7)	inactive: 0.086
SLC35D1 (UniProt Q9NTN3)	inactive: 0.065
SLC3A2 (UniProt F5H867)	inactive: -0.241
SLC35C1 (UniProt Q96A29)	inactive: -0.038
SLC22A5 isoform 3 (UniProt O76082)	inactive: -0.016
SLC25A29 (UniProt Q8N8R3)	inactive: 0.047
SLC1A3 (UniProt P43003)	inactive: -0.095
SLC25A35 (UniProt Q3KQZ1)	inactive: 0.118
SLC31A1 (UniProt O15431)	inactive: -0.028
SLC35E3 (UniProt Q7Z769)	inactive: 0.075
SLC50A1 (UniProt Q9BRV3)	inactive: -0.141
SLC6A19 (UniProt Q695T7)	inactive: -0.218
SLC25A14 isoform 3 (UniProt O95258)	inactive: 0.028
SLC22A4 (UniProt Q9H015)	inactive: -0.107
SLC10A7 isoform 1 (UniProt Q0GE19)	inactive: 0.033
SLC25A28 (UniProt Q96A46)	inactive: 0.009
SLC15A4 (UniProt Q8N697)	inactive: -0.065
SLC35E1 (UniProt Q96K37)	inactive: 0.081
